We go through five molecules from US20190135908A1 (Novartis, published 2019).

In experiment [1] the target is T1, Cyno GDF15 (Macaca fascicularis (cynomolgus monkey)) (UniProt G7PWZ3).
T1 sequence (GDF15, looked up): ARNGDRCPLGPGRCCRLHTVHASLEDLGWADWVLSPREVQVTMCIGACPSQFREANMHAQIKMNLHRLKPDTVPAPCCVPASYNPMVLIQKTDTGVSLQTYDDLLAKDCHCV
As to the kind of experiment: direct ELISA: GDF15 variant coated on the plate, serially diluted antibody, anti-human IgG-HRP detection. On the technique in general: An ELISA detects its analyte on a solid surface through an enzyme-linked reagent.

Experiment [2] addresses T2, GDF15 mutant Q295R (wrist domain), albumin fusion (human) (UniProt Q99988).
T2 sequence: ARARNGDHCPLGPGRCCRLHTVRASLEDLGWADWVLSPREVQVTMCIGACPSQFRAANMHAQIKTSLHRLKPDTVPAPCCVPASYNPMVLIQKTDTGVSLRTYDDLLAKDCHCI
As to the kind of experiment: direct ELISA on coated albumin-fusion GDF15 variant.

No constants are given. Whether binding was seen depends on the method and setting. Some results given as binding are weak or reduced against the parent protein; the word gives no strength. For some assays here: Tags and fused reporters may be left off the sequences shown.

B1: ABGDF15-G (antibody, human IgG1, kappa, V domains shown)
VH: QVQLVQSGAEVKKPGSSVKVSCKASGGTFSSHYINWVRQAPGQGLEWMGGIIPAFGGANYAQKFQGRVTITADESTSTAYMELSSLRSEDTAVYYCARFGSVYVSRYSSYYHMDVWGQGTLVTVSS
VL: DIQMTQSPSSLSASVGDRVTITCRASQTIYRSLAWYQQKPGKAPKLLIYGASILQSGVPSRFSGSGSGTDFTLTISSLQPEDFATYYCLQRYTSPFTFGQGTKVEIKR
notes: captured through anti-human Fc in the Biacore assay
As for B1, the binding result in experiment [1] and in experiment [2] was “binds” throughout.

B2: ABGDF15-D (antibody, human IgG1, lambda, V domains shown)
VH: EVQLVQSGAEVKKPGESLKISCKGSGYSFTSYWIGWVRQMPGKGLEWMGVIDPDGSYTIYSPSFQGQVTISADKSISTAYLQWSSLKASDTAMYYCARYGRYGTYFDYWGQGTLVTVSS
VL: QSVLTQPPSVSGAPGQRVTISCSGSSSNIGVLYVNWYQQLPGTAPKLLIYSNDNRPSGVPDRFSGSKSGTSASLAITGLQAEDEADYYCQSWDSSSNYVFGGGTKLTVLG
notes: as for B1
B2: the binding result in experiment [1] was “binds”.

B3: ABGDF15-A (antibody, human IgG1, kappa, V domains shown)
VH: EVQLVQSGAEVKKPGESLKISCKGSGYSFTDYWISWVRQMPGKGLEWMGIIDPSGSYTIYSPSFQGQVTISADKSISTAYLQWSSLKASDTAMYYCARVSYYGGYFDIWGQGTLVTVSS
VL: DIQMTQSPSSLSASVGDRVTITCRASQSISNNLNWYQQKPGKAPKLLIYAASNLQSGVPSRFSGSGSGTDFTLTISSLQPEDFATYYCFQLDHSPFTFGQGTKVEIKR
notes: as for B1
B3: the binding result in experiment [1] and in experiment [2] was “binds” throughout.

B4: ABGDF15-F (antibody, human IgG1, lambda, V domains shown)
VH: EVQLVQSGAEVKKPGESLKISCKGSGYSFTSYWIGWVRQMPGKGLEWMGVIDPSGSYTIYSPSFQGQVTISADKSISTAYLQWSSLKASDTAMYYCARYGRYGTYFDYWGQGTLVTVSS
VL: QSVLTQPPSVSGAPGQRVTISCSGSSSNIGVLYVNWYQQLPGTAPKLLIYSNDNRPSGVPDRFSGSKSGTSASLAITGLQAEDEADYYCQSWDSSSNYVFGGGTKLTVLG
notes: as for B1
Regarding B4, the binding entry in experiment [1] and in experiment [2] was “binds” each time.

B5: ABGDF15-E (antibody, human IgG1, lambda, V domains shown)
VH: EVQLVQSGAEVKKPGESLKISCKGSGYSFTSYWIGWVRQMPGKGLEWMGVIDPGGSYTIYSPSFQGQVTISADKSISTAYLQWSSLKASDTAMYYCARYGRYGTYFDYWGQGTLVTVSS
VL: QSVLTQPPSVSGAPGQRVTISCSGSSSNIGVLYVNWYQQLPGTAPKLLIYSNDNRPSGVPDRFSGSKSGTSASLAITGLQAEDEADYYCQSWDSSSNYVFGGGTKLTVLG
notes: as for B1
With B5, the binding result in experiment [1] is on record as “binds”.
